According to article PMC9434705:
Results are given in words; binding and its absence hold for the method and conditions named. Binding seen in cells or lysates may run through a third protein. Some binding calls cover weakened binding; strength is not graded here. For some assays here: Tags and fused reporters may be left off the sequences shown.

The chains behind the UniProt entries cited, without tags or fusion partners. Where a name states a change or a piece, a line headed by the entry shows the natural chain unless it says otherwise.
UniProt O75592: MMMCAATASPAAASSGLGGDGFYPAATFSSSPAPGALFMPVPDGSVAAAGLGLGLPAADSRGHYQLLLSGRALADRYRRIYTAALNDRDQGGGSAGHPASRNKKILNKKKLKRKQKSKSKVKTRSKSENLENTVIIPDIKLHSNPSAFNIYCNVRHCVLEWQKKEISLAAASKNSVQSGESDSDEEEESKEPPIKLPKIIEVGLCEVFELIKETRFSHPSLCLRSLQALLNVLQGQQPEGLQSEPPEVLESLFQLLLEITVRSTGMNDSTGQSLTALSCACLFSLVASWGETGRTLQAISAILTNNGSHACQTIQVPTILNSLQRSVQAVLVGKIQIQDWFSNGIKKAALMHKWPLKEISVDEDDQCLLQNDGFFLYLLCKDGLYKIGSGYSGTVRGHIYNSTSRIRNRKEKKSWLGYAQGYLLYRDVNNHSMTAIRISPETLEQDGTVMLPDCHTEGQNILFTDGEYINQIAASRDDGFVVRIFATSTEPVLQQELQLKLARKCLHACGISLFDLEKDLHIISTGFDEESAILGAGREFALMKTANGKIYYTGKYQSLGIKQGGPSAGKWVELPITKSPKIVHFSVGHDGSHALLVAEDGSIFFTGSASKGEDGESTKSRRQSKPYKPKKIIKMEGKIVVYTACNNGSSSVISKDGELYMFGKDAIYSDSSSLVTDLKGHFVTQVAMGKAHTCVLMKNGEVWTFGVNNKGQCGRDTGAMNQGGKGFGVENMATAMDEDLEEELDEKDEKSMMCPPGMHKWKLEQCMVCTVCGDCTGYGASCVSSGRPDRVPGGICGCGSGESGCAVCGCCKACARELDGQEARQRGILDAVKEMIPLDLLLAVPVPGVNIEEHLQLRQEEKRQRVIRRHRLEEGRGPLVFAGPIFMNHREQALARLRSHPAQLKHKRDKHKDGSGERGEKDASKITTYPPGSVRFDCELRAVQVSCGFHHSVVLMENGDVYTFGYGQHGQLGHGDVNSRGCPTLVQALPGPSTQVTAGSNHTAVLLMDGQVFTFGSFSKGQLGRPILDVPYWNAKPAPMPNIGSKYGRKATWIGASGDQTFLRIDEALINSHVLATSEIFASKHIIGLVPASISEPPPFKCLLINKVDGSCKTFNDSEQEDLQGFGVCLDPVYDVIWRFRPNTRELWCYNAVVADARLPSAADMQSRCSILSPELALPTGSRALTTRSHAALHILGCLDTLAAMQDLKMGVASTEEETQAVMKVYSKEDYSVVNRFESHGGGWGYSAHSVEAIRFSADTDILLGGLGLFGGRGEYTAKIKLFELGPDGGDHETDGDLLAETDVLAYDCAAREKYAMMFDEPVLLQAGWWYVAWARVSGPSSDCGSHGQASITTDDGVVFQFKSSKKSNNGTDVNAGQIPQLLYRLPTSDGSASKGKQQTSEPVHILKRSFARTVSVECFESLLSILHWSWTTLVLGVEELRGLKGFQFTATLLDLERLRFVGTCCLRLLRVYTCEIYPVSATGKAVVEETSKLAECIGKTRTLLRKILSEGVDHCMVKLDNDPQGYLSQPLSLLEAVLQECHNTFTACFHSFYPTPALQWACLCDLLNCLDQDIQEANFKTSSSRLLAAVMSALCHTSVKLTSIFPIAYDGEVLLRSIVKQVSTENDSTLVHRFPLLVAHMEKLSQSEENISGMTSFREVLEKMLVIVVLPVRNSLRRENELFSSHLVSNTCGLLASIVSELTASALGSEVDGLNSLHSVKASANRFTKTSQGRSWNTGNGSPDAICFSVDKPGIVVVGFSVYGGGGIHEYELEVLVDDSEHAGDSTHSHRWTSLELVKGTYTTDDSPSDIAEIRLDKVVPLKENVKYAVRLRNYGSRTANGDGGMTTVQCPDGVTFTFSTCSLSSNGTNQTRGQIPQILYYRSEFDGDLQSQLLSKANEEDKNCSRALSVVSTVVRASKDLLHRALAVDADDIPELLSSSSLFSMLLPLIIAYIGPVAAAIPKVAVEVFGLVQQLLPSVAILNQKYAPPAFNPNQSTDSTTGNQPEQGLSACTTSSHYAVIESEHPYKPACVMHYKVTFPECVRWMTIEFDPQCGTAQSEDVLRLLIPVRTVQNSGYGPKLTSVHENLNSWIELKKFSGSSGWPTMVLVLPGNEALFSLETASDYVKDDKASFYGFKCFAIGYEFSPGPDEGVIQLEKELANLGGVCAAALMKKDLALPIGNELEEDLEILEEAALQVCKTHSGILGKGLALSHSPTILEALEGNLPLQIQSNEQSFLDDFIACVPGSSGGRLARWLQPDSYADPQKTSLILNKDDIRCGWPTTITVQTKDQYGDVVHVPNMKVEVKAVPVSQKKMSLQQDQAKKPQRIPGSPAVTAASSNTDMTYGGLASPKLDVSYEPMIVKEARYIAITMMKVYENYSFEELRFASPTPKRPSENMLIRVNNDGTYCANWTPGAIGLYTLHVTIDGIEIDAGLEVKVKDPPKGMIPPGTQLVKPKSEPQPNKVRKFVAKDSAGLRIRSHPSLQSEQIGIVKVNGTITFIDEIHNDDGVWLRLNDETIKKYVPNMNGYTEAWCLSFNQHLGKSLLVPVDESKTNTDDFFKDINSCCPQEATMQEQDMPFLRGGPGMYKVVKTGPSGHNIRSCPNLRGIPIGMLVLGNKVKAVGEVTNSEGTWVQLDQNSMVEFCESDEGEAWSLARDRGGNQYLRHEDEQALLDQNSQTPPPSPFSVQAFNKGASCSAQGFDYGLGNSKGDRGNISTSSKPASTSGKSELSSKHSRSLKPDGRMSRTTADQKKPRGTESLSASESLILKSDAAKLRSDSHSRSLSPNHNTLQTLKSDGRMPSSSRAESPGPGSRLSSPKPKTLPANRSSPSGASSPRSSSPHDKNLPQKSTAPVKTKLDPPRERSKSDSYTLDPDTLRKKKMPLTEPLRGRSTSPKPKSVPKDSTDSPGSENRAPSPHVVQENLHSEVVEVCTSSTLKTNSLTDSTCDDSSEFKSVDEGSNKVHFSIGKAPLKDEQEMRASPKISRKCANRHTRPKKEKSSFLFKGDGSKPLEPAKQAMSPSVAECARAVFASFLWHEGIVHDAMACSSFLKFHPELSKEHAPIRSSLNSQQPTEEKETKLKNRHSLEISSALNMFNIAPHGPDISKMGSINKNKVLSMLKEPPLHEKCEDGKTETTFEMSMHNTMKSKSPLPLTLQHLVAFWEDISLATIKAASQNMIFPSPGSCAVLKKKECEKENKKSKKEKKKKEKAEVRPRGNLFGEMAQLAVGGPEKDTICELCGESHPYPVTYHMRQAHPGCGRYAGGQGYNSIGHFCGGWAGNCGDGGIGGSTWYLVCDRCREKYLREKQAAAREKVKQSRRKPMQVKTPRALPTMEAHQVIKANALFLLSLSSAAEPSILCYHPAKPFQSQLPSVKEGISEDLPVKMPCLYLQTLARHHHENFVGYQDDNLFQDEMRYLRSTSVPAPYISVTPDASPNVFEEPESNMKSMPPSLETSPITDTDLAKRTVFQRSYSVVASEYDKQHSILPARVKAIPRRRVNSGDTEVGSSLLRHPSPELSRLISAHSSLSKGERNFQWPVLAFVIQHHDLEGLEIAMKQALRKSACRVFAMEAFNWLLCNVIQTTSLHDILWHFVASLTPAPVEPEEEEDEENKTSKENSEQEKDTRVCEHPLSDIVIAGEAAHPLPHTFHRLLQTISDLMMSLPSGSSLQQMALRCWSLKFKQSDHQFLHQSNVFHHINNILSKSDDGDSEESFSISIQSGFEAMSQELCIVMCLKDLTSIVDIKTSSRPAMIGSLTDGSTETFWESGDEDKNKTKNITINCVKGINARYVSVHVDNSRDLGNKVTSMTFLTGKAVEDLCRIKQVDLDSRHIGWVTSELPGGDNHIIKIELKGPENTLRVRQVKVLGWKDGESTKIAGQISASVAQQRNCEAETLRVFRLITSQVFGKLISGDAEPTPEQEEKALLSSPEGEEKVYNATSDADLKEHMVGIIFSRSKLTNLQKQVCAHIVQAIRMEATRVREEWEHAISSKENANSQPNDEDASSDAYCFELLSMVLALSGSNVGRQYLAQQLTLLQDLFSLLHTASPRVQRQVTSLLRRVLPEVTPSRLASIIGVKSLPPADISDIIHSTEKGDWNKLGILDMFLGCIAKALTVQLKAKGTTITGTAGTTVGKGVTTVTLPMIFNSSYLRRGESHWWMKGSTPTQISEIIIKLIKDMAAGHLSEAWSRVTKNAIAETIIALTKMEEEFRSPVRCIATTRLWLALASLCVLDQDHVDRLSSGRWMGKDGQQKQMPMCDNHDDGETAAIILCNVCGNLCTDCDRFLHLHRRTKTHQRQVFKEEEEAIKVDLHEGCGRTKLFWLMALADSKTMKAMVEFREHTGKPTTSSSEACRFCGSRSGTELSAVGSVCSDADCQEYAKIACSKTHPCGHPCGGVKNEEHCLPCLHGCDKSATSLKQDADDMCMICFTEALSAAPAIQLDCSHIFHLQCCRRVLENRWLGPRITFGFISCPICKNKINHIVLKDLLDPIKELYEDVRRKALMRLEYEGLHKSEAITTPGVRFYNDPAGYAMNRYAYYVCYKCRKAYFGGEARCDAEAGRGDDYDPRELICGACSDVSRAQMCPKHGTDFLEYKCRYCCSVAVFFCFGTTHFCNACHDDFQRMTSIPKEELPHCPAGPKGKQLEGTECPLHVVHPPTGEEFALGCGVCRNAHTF
UniProt P15056: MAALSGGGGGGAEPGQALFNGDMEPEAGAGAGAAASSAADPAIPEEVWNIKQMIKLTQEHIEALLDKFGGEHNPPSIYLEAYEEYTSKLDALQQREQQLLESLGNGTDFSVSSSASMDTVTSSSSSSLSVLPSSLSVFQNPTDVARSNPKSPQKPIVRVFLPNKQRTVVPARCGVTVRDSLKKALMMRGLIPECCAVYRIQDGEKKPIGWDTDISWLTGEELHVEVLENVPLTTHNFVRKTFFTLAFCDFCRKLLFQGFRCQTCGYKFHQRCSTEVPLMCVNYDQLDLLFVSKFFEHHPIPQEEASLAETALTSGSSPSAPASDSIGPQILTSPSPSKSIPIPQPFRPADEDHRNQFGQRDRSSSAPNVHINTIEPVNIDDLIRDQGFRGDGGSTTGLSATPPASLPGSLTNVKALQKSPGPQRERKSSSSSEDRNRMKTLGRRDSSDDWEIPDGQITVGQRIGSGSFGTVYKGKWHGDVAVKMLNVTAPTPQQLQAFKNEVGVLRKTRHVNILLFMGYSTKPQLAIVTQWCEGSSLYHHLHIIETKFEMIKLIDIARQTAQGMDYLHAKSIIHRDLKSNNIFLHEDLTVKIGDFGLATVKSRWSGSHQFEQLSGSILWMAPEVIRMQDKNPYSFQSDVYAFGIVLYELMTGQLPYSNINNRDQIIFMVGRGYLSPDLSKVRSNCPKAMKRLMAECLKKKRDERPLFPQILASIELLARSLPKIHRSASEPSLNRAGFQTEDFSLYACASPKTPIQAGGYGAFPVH

Columns and labels:
FLAG-MST2 = biological target: T1, FLAG-MST2 (UniProt Q13188); assay: co-IP; FLAG-MST2 precipitated with FLAG beads from parental and resistant cells 48 h after transfection; blot for endogenous MYCBP2
T1 sequence: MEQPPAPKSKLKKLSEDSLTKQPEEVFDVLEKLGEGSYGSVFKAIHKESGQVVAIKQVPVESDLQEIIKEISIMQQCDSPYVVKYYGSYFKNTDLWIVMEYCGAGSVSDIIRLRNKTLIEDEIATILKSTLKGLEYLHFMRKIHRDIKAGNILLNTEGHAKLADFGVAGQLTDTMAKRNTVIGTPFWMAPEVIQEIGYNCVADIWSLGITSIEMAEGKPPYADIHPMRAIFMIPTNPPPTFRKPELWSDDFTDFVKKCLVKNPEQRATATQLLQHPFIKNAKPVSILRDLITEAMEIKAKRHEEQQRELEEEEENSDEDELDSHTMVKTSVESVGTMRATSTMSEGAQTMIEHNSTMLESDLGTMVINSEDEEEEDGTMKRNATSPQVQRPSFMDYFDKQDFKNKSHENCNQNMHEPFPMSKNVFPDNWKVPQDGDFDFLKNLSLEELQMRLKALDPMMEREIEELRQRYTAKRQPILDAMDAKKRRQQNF

[1] = biological target: T2, MST2 (endogenous) (human (endogenous in HeLa, A375, SK-Mel28, WM-793, SK-Mel2)) (UniProt Q13188); assay: co-IP; endogenous MST2 or BRAF^V600E (mutant specific antibody) precipitated from lysates of A375, SK-Mel28, WM-793 and SK-Mel2 cells, untreated or treated with PLX4032; in A375 also BRAF precipitated after dabrafenib, encorafenib, sorafenib or TAK-632 (Fig S1A); blots for BRAF and MST2
T2 sequence: T1 sequence

MYCBP2 (endogenous) (from UniProt O75592 1-4678)
binding (FLAG-MST2): binds

BRAF^V600E (endogenous, mutant BRAF melanoma cells) (from UniProt P15056 1-766)
binding [1]: binds
